The target of assay [1] is GAPDH of Huh7.5.1 cells (human (endogenous in Huh7.5.1)) (UniProt P04406). In words: co-IP.
Assay [2] concerns the target recombinant full-length DENV2 NS3 protein (dengue virus 2, New Guinea C (NGC) strain) (UniProt P14340). In words: ELISA; both purified. In general terms: An ELISA detects its analyte on a solid surface through an enzyme-linked reagent.

Amino acid sequences for entries named in this document (tags omitted).
UniProt P04406: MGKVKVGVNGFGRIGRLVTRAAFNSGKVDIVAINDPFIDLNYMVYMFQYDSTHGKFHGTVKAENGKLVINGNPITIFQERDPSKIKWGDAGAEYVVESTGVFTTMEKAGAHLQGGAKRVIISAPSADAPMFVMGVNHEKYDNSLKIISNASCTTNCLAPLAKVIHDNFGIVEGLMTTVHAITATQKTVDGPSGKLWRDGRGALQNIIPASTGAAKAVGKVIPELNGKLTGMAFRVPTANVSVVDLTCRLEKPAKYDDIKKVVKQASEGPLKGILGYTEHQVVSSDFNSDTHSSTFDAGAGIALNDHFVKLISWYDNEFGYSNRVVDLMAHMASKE

No constants are given. Whether binding was seen depends on the method and setting. For some assays here: Binding seen in cells or lysates may run through a third protein. Some results given as binding are weak or reduced against the parent protein; the word gives no strength.

Data on two substances can be found in publication PMC6389977.

“DENV2 NS3 protein in DENV2-infected Huh7.5.1 cells (from UniProt P29990 1476-2093)”: in assay [1], the binding entry is recorded as “binds”.

For the substance “purified recombinant human GAPDH protein (from UniProt P04406 1-335) (enzyme)”, the binding entry in assay [2] was “binds”.
